Experimental data: article PMC11653647

By UniProt entry, the sequences of proteins in these tests, tags left out.
UniProt O14744: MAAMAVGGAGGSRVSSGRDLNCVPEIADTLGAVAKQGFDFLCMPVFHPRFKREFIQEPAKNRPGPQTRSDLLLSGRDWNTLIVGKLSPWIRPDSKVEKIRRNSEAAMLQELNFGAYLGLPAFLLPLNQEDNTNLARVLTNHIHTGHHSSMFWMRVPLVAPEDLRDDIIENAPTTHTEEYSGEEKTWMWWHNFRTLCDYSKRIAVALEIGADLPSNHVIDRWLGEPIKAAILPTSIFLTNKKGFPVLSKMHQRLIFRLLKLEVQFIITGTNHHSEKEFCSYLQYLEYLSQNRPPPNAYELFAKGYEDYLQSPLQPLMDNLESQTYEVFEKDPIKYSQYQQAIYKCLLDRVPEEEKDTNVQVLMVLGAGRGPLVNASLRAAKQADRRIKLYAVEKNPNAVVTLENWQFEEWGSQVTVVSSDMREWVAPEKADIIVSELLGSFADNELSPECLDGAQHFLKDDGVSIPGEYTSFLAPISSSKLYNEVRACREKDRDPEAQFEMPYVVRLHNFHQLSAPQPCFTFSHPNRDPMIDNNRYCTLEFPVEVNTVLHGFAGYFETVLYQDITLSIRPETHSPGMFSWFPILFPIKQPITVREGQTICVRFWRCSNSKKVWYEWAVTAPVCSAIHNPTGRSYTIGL
UniProt Q9BQA1: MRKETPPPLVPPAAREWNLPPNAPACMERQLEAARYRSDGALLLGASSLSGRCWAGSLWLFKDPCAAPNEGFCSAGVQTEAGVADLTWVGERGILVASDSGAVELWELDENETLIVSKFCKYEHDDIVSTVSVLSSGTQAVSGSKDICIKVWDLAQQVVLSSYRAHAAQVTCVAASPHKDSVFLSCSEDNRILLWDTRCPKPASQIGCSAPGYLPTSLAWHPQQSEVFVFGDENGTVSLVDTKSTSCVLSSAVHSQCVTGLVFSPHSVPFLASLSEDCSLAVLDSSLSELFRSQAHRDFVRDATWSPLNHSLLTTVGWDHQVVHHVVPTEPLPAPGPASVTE

Molecular target: T1, C-terminal Flag-tagged TBL2 (transducin beta-like 2) (UniProt Q9Y4P3)
T1 sequence: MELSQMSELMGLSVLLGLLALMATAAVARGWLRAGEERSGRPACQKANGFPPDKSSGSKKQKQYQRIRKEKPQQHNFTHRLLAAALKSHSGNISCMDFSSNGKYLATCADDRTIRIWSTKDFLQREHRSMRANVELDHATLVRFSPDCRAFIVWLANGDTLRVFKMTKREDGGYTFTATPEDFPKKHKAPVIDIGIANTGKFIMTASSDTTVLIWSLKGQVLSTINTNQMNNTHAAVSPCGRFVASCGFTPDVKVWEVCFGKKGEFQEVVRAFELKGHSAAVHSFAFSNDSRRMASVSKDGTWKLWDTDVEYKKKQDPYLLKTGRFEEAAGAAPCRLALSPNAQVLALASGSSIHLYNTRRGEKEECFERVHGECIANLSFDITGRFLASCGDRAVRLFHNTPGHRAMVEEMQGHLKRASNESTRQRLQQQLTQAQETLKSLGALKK
Experiment: affinity purification with mass spectrometry; tandem immunoprecipitation from 293T and MDA-MB-231 cells overexpressing C-terminal Flag-tagged TBL2 or luciferase (control); hits are the intersection of the two cell lines

| binding | Substance |
| --- | --- |
| binds | PRMT5 (protein arginine methyltransferase 5), endogenous (from UniProt O14744 1-637) (enzyme) |
| binds | WDR77 (methylosome protein 50), endogenous (from UniProt Q9BQA1 1-342) |

These are yes or no findings as the source states them, for the method shown. Binding seen in cells or lysates may run through a third protein. These calls come from enrichment with a bait or labelling near it, and not all partners need be listed. Tags and fused reporters may be left off the sequences shown.
